Values from PubChem BioAssay AID493246 (Drosophila RNAi Screening Center, 2011)

- Test: 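Genes fly cells need to grow and stay alive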 (primary screen)
- System: Drosophila Kc and S2R+ cells
- Knock-down reagent: long dsRNA against Drosophila genes
- Measured: 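Cell number per well after knock-down, printed as raw plate values; calls were based on per-plate z-scores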
- Scale: Kc cell number and S2R+ cell number: higher = more cells remaining
- Call rule: 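Active when the per-plate z-score of cell number is 3 or more in the direction of fewer cells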
The deposit covers about 21,000 reagents; shown is an unselected part of those that have a named target and a result. Over the whole deposit, 429 (2%) were called active. 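Values are raw and not normalised between plates; calls rest on per-plate z-scores that were not deposited.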 A plus sign joins genes that one reagent is predicted to hit. Not stated in the record: the amount of reagent, the time to read-out.

| target gene | dsRNA | Kc cell number, rep 1 | Kc cell number, rep 2 | S2R+ cell number, rep 1 | S2R+ cell number, rep 2 | outcome |
| --- | --- | --- | --- | --- | --- | --- |
| Best3 (Bestrophin 3) | DRSC09880 | 1.60e6 | 1.85e6 | 1.26e6 | 1.43e6 | inactive |
| CG2200 | DRSC19840 | 1.50e6 | 1.44e6 | 1.09e6 | 1.07e6 | inactive |
| CG32241 | DRSC08100 | 1.46e6 | 1.34e6 | 1.05e6 | 1.16e6 | inactive |
| CG11425 | DRSC11657 | 1.72e6 | 2.05e6 | 1.28e6 | 1.39e6 | inactive |
| CG14408 | DRSC19595 | 5.27e5 | – | 7.60e5 | – | inactive |
| fend (forked end) | DRSC17601 | 1.35e6 | 1.49e6 | 1.04e6 | 1.15e6 | inactive |
| fend (forked end) | DRSC17867 | 1.68e6 | 1.63e6 | 1.04e6 | 1.12e6 | inactive |
| fest (wurstfest) | DRSC07349 | 1.52e6 | 1.52e6 | 1.16e6 | 1.24e6 | inactive |
| CG10862 | DRSC08170 | 1.36e6 | 1.27e6 | 9.79e5 | 1.24e6 | inactive |
| Fkbp12 (FK506-binding protein 12kD) | DRSC07425 | 1.51e6 | 1.58e6 | 1.16e6 | 1.24e6 | inactive |
| LysD + LysB + LysC (retired record) | DRSC21249 | 1.50e6 | 1.57e6 | 1.13e6 | 1.24e6 | inactive |
| Daxx (Daxx-like protein) | DRSC03255 | 1.19e6 | 1.46e6 | 2.38e5 | 1.45e5 | inactive |
| CG15553 | DRSC15091 | 1.71e6 | 1.76e6 | 1.09e6 | 1.27e6 | inactive |
| CG18586 | DRSC10325 | 1.43e6 | 1.61e6 | 1.28e6 | 1.29e6 | inactive |
| CG6059 | DRSC15958 | 5.02e5 | – | 7.55e5 | – | inactive |
| Lsp1alpha (Larval serum protein 1 alpha) | DRSC20258 | 1.66e6 | 1.46e6 | 1.17e6 | 1.27e6 | inactive |
| CG3288 | DRSC11745 | 1.35e6 | 1.47e6 | 1.30e6 | 1.36e6 | inactive |
| Tmtc1 (Transmembrane O-mannosyltransferase targeting cadherins 1) | DRSC00147 | 1.49e6 | 1.52e6 | 9.96e5 | 1.10e6 | inactive |
| Tmtc1 (Transmembrane O-mannosyltransferase targeting cadherins 1) | DRSC00151 | 1.47e6 | 1.51e6 | 1.03e6 | 1.16e6 | inactive |
| Tmtc1 (Transmembrane O-mannosyltransferase targeting cadherins 1) | DRSC00314 | 1.70e6 | 1.80e6 | 1.11e6 | 1.27e6 | inactive |
| Tmtc1 (Transmembrane O-mannosyltransferase targeting cadherins 1) | DRSC00411 | 1.61e6 | 1.64e6 | 1.08e6 | 1.26e6 | inactive |
| Mgat4b | DRSC10256 | 1.40e6 | 1.39e6 | 1.18e6 | 1.30e6 | inactive |
| CG3764 | DRSC10375 | 1.63e6 | 1.71e6 | 1.20e6 | 1.35e6 | inactive |
| CG13282 | DRSC02254 | 1.55e6 | 1.61e6 | 1.26e6 | 1.34e6 | inactive |
| CG4294 | DRSC04460 | 1.26e6 | 1.31e6 | 9.82e5 | 1.06e6 | inactive |
| Grip (Glutamate receptor interacting protein) | DRSC17940 | 6.60e5 | 8.63e5 | 6.91e5 | 8.01e5 | active |
| Grip (Glutamate receptor interacting protein) | DRSC18395 | 1.51e6 | 1.48e6 | 1.02e6 | 1.17e6 | inactive |
| CG9231 | DRSC11054 | 1.52e6 | 1.53e6 | 1.23e6 | 1.24e6 | inactive |
| SK (small conductance calcium-activated potassium channel) | DRSC17387 | 1.59e6 | 1.68e6 | 1.07e6 | 1.14e6 | inactive |
| SK (small conductance calcium-activated potassium channel) | DRSC17751 | 1.59e6 | 1.58e6 | 9.81e5 | 1.05e6 | inactive |
| SK (small conductance calcium-activated potassium channel) | DRSC17887 | 1.56e6 | 1.54e6 | 9.97e5 | 1.15e6 | inactive |
| SK (small conductance calcium-activated potassium channel) | DRSC17888 | 1.51e6 | 1.44e6 | 1.02e6 | 1.11e6 | inactive |
| SK (small conductance calcium-activated potassium channel) | DRSC18353 | 6.52e5 | – | 9.03e5 | – | inactive |
| CG31789 | DRSC01645 | 1.39e6 | 1.45e6 | 9.10e5 | 1.10e6 | inactive |
| l(1)G0020 (lethal (1) G0020) | DRSC18198 | 1.84e6 | 1.80e6 | 1.13e6 | 1.29e6 | inactive |
| RpL22-like (Ribosomal protein L22-like) | DRSC04582 | 1.61e6 | 1.66e6 | 1.24e6 | 1.41e6 | inactive |
| Scp2 (Sarcoplasmic calcium-binding protein 2) | DRSC13166 | 1.55e6 | 1.59e6 | 1.10e6 | 1.22e6 | inactive |
| Scp2 (Sarcoplasmic calcium-binding protein 2) | DRSC16854 | 1.43e6 | 1.45e6 | 1.12e6 | 1.24e6 | inactive |
| CG10333 | DRSC02036 | 1.37e6 | 1.51e6 | 1.14e6 | 1.08e6 | inactive |
| uif (uninflatable) | DRSC00963 | 1.60e6 | 1.68e6 | 1.16e6 | 1.31e6 | inactive |
| uif (uninflatable) | DRSC03427 | 1.56e6 | 1.43e6 | 1.08e6 | 1.23e6 | inactive |
| CG18659 | DRSC06784 | 1.45e6 | 1.51e6 | 1.21e6 | 1.31e6 | inactive |
| MTA1-like (Metastasis associated 1-like) | DRSC12382 | 1.55e6 | 1.67e6 | 1.26e6 | 1.32e6 | inactive |
| Dlip1 (Dorsal interacting protein 1) | DRSC18460 | 1.71e6 | 1.62e6 | 1.08e6 | 1.21e6 | inactive |
| Coprox (Coproporphyrinogen oxidase) | DRSC01996 | 1.24e6 | 1.37e6 | 5.96e5 | 6.93e5 | inactive |
| HmgD (High mobility group protein D) | DRSC04619 | 1.08e6 | 1.08e6 | 6.43e5 | 5.34e5 | active |
| CG13488 | DRSC04133 | 1.71e6 | 1.86e6 | 1.45e6 | 4.51e5 | inactive |
| CG42272 | DRSC08766 | 1.58e6 | 1.59e6 | 1.07e6 | 1.23e6 | inactive |
| Miox (Myo-inositol oxygenase) | DRSC10747 | 1.30e6 | 1.36e6 | 1.26e6 | 1.35e6 | inactive |
| Amacr (Alpha-methylacyl-CoA racemase) | DRSC03198 | 1.13e6 | 1.34e6 | 1.03e6 | 1.00e6 | inactive |
| Srp54k (Signal recognition particle 54k) | DRSC11289 | 1.58e6 | 1.68e6 | 1.23e6 | 1.32e6 | inactive |
| Ubc7 (Ubiquitin conjugating enzyme 7) | DRSC20299 | 1.47e6 | 1.47e6 | 1.04e6 | 1.13e6 | inactive |
| UQCR-C2 (Ubiquinol-cytochrome c reductase core protein 2) | DRSC10405 | 1.29e6 | 1.28e6 | 9.99e5 | 1.14e6 | inactive |
| Fntb (Farnesyl transferase beta subunit) | DRSC15244 | 1.43e6 | 1.55e6 | 1.14e6 | 1.20e6 | inactive |
| Sid (Stress induced DNase) | DRSC16588 | 1.47e6 | 1.46e6 | 1.04e6 | 1.12e6 | inactive |
| CG2260 | DRSC18223 | 5.30e5 | – | 8.78e5 | – | inactive |
| Tango2 (Transport and Golgi organization 2) | DRSC19394 | 6.32e5 | – | 8.91e5 | – | inactive |
| eIF2Balpha (eukaryotic translation initiation factor 2B subunit alpha) | DRSC16332 | 5.11e5 | – | 8.51e5 | – | inactive |
| Jhbp5 (Juvenile hormone binding protein 5) | DRSC14240 | 1.30e6 | 1.35e6 | 1.13e6 | 1.28e6 | inactive |

An excerpt from above, reduced to “S2R+ cell number, rep 1”:
Daxx (Daxx-like protein) [DRSC03255]	2.38e5
CG15553 [DRSC15091]	1.09e6
CG18586 [DRSC10325]	1.28e6
CG6059 [DRSC15958]	7.55e5
Lsp1alpha (Larval serum protein 1 alpha) [DRSC20258]	1.17e6
CG3288 [DRSC11745]	1.30e6
Tmtc1 (Transmembrane O-mannosyltransferase targeting cadherins 1) [DRSC00147]	9.96e5
Tmtc1 (Transmembrane O-mannosyltransferase targeting cadherins 1) [DRSC00151]	1.03e6
